In publication PMC10163288:
The list shows a part of the results.

B1: il10ra_site1_sap_19_mot_HHH_b1_00103_000000293_0001_1_15_H_._HHH_b1_02295_0001_0000200008_0000001_0_0001 (protein)
chain: SSSSDEAYEIAKEAIERALEAWRRGNPEEAREIIEEAIELLEELNNPAAAFALRVVLEALRSSSS
B2: il10ra_site1_sap_23_mot_3c6ad1a4bc7d4f5cf55cee527202d42a_0001_000000108_0001_32_49_H_._HHH_b1_03537_af2_0001_0000800021_0000001_0_0001 (protein)
chain: SSSSSTLEWSVRFVIEVAEHLFELGDPERARELLEAILRQVERAGDEELLELLERVLEELSSSSS
B3: il10ra_site1_normal_mot_8756ee2cf497b5429c717dfc0c0bcfd6_0001_000000186_0001_1_13_H_._HHH_b1_02785_0001_0000100007_0000001_0 (protein)
chain: SSSSDNEELYRLLREAAEVHHEENDPEEAKEILEEAIELAEELNNDVFLAQAEYMLRLLRSSSSS
B4: il10ra_site1_sap_19_mot_HHH_b1_02616_af2_000000157_0001_1_18_H_._HHH_b1_06733_af2_0001_0000700019_0000001_0_0001 (protein)
chain: SSSSSEELQEEVEELLEEAKHIEDPRERAEVLLRATHLAMQLGDPELVRLVWRVVKELFKSSSSS
B5: il10ra_site1_normal_mot_HHH_b1_06837_000000150_0001_20_37_H_._HHH_b1_00034_0001_0000200019_0000001_0 (protein)
chain: SSSSDERREIYELLREASELDQEGNPEEARKVLEEAEELAEEAGNRLLLFVVEYLLRILNSSSSS
B6: il10ra_site1_normal_mot_HHH_b2_00475_000000107_0001_44_57_H_._HHH_b1_01897_0001_0000100002_0000001_0_af2pred_0001 (protein)
chain: SSSSSEEVAELLLKALEALANGNPEEARELAEEAERVAEELGDPELEEKVEIVKHFIEAVSSSSS
B7: il10ra_site1_sap_13_mot_HHH_b1_00814_af2_000000078_0001_43_57_H_._HHH_b1_01095_af2_0001_0000100003_0000001_0_0001 (protein)
chain: SSSSYEEVKELIEQIVELARNGNPEEAEKVLEELRELAEELNNPAVRFDVELLERDIKATSSSSS
B8: il10ra_site1_sap_23_mot_HHH_b1_02809_af2_000000277_0001_40_57_H_._HHH_b1_02459_0001_0000100004_0000001_0_0001_af2pred_0001 (protein)
chain: SSSSSSSERREVRELIREALHIDDEEERRQVLEEALRLAEELGNLLLEIAARFALKRSSSSSSSS
B9: il10ra_site1_normal_mot_HHH_b1_05860_000000142_0001_1_19_H_._HHH_b2_06708_af2_0001_0000300028_0000001_0 (protein)
chain: SSSSDEAAEEVYRLLRELAELHDEGDEEEFERLAERIEELIRELGNRLLEFNLRHLQRQLSSSSS
B10: il10ra_site1_sap_8_mot_HHH_b2_00277_af2_000000172_0001_1_17_H_._HHH_b2_05601_0001_0000200007_0000001_0_0001 (protein)
chain: SSSSSSAHELYELSRRVAELRARGNPEEARELVREAIELAEELNNRVMLHNLRMLLEQLESSSSS
B11: il10ra_site1_normal_mot_HHH_b2_07440_af2_000000021_0001_1_18_H_._HHH_b1_03012_af2_0001_0000500014_0000002_0 (protein)
chain: SSSSDEEKQEALELSLEAFRLALRGNEEEAKKVLEEAERLLEELGDPRALRIVRSLLQALSSSSS
B12: il10ra_site1_normal_mot_HHH_b2_04680_000000215_0001_1_16_H_._HHH_b2_02011_af2_0001_0000300016_0000001_0 (protein)
chain: SSSSSSSEENREAYELLREAFHIEDPEEVRELLEEALELAREIGNFALVFAIELALKQLSSSSSS
B13: il10ra_site1_sap_18_mot_HHH_b2_00277_af2_000000172_0001_1_17_H_._HHH_b2_02521_0001_0000400007_0000002_0_0001 (protein)
chain: SSSSDEEERLEELLEEAEELLEKGDKERLLRVLLEALQLAYQLGDEEVLQRLWELLERARSSSSS
B14: il10ra_site1_normal_mot_HHH_b2_02337_000000026_0001_38_52_H_._HHH_b1_02776_0001_0000300029_0000001_1 (protein)
chain: SSSSDLEEEIEELLKELEELIKEGDQERISELAQRILRLIAEAQNAELLRELWRLVQEFYSSSSS
B15: il10ra_site1_sap_27_mot_HHH_b1_02665_000000293_0001_1_18_H_._HHH_b2_00293_0001_0000200009_0000001_0_0001 (protein)
chain: SSSSDEEELRRQAEELLEEAEELSKRDPEKASRVAAKAVRIALRANDEELLQEIWEFVKRLSSSS
B16: il10ra_site1_sap_24_mot_39ab2cb694c8b9c1dc7e65c0d672c93e_0001_000000036_0001_53_65_H_._HHH_b2_00700_af2_0001_0000200009_0000001_0_0001 (protein)
chain: SSSSDKELRRRAYELSREIVELASEGDEERAEELLREVEEIAEEANSKLMEFIVEILKRDLSSSS
B17: il10ra_site1_sap_27_mot_HHH_b2_08186_000000021_0001_43_56_H_._HHH_b1_07279_0001_0000600053_0000001_0_0001 (protein)
chain: SSSSSDYEERVRELLEEAEELAEEGDPEKAVKLAQEAVRAAFQAKDPELLRLVFRVARKLSSSSS
B18: il10ra_site1_sap_15_mot_65b8060e20531850bca9f2e11f97d954_0001_af2_000000137_0001_17_31_H_._HHH_b1_04696_0001_0000500012_0000001_0_0001 (protein)
chain: SSSSSTEEVMKLIREAAELIQQGNEEEAREVLEEARELAEEENNWALRWAIRHLERDLNSSSSSS
B19: il10ra_site1_sap_19_mot_HHH_b2_01705_af2_000000069_0001_44_57_H_._HHH_b1_08772_af2_0001_0000100001_0000001_0_0001 (protein)
chain: SSSSDEEELERLLEELKELIEEGDREEALRLMKEILHLAFRLSDPEAFHILMRLAEELKNSSSSS
B20: il10ra_site1_sap_25_mot_HHH_b1_06256_000000091_0001_42_58_H_._HHH_b1_02304_0001_0000400033_0000001_0_0001 (protein)
chain: SSSSDEVAHELYELLREIAELMAEGDRERAEELLEEAKELAEEHNSPLLFNIRYLEEQVNSSSSS
B21: il10ra_site1_sap_11_mot_HHH_b2_00943_af2_000000149_0001_1_17_H_._HHH_b2_04042_0001_0000500018_0000001_0_0001 (protein)
chain: SSSSDKYEEIKKAIERIIKLLEEGDRERAEEVLEELEEIVEESGDWAQRFVVELLERDIKASSSS
B22: il10ra_site1_normal_mot_HHH_b1_04514_000000156_0001_1_18_H_._2051c93d6f136ab5bac26191f104723f_0001_1_0001_0000400018_0000002_0_af2pred_0001 (protein)
chain: DELEEKIREAIEKNDFELLREIIEIIAELRERDPEEAEELVELLLKLARELNDPYVAHSAEALKR
B23: il10ra_site1_normal_mot_HHH_b1_01879_000000050_0001_1_18_H_._HHH_b2_02257_0001_0000500017_0000002_0_af2pred_dldesign_0_af2pred (protein)
chain: SSSSKKEIEKTVFDALVKAAKEGDWDTVRELATLSRQVKLTKDPELEKKLYELAKSYLEKISSSS
B24: il10ra_site1_sap_19_mot_HHH_b1_00666_000000226_0001_43_56_H_._HHH_b1_02217_af2_0001_0000200007_0000002_0_0001 (protein)
chain: SSSSSDEEVEELIEQVEELLRQGDPERALQVVYEAVRIAAELGDEELLRRLQELIQEIFGSSSSS
B25: il10ra_site1_normal_mot_HHH_b1_03333_000000091_0001_1_17_H_._HHH_b1_05408_0001_0000200031_0000001_0 (protein)
chain: SSSSTEEYEEVKEAIEKAVELFRNGDPEEARELLEELLEKLEELGNVAAVFSVEHLARLLSSSSS
B26: il10ra_site1_sap_20_mot_HHH_b2_01205_000000166_0001_1_19_H_._HHH_b1_02466_0001_0000300019_0000002_0_0001 (protein)
chain: SSSSSEFVEMTFRFAEWLAREGDDRAARRFLQAAEDIARRDNDPELEELVEELEKLLRELLSSSS
B27: il10ra_site1_sap_22_mot_HHH_b1_00999_000000080_0001_41_55_H_._HHH_b1_02412_af2_0001_0000600059_0000001_0_0001 (protein)
chain: SSSSEEWFERFKELIERITQALQEGDEEKVEKLLKEIEELAEEANNPVLRFVVELLEEALNSSSS
B28: il10ra_site1_normal_mot_HHH_b1_05587_000000266_0001_24_40_H_._HHH_b2_03370_0001_0000200005_0000001_0_af2pred_0001 (protein)
chain: SSSSSDEEERLRLAALDLEVNLKAGNEEAAKRVAKALLFLARQANDEEAEREAEEVLRELSSSSS
B29: il10ra_site1_normal_mot_HHH_b1_07380_000000129_0001_1_20_H_._HHH_b2_05268_0001_0000100004_0000001_0 (protein)
chain: SSSSTEESRELYELSREALELLAEGDPEEAREVVEEAREIAEEAGNFNFLFAIEHLLQDINSSSS
B30: il10ra_site1_normal_mot_HHH_b1_05326_000000242_0001_1_20_H_._HHH_b2_05780_af2_0001_0000300018_0000002_0 (protein)
chain: SSSSDERERALEISVHAFRALLRGNPEEAERLLEEALELAERLNDERLARLIEELLKVIGSSSSS
B31: il10ra_site1_sap_19_mot_2fa031a62b9321f410fa37cb4b35ac9e_0001_af2_000000160_0001_1_14_H_._HHH_b2_08251_af2_0001_0000200005_0000002_0_0001 (protein)
chain: SSSSSDQEEAVELSLEAFRLALRGDPEEARRVLEEALELAEEAGDERMAKVIRDMLRALSSSSSS
B32: il10ra_site1_sap_21_mot_HHH_b2_08172_af2_000000094_0001_41_56_H_._d0e8961964c3861271c3cee42b2d364a_0001_1_0001_0000200014_0000001_0_0001 (protein)
chain: SSSSDAHDEIYELLRRAIELAKEGNPEEAQELLKEAKELAEEQGNEAMRYIIESVEEYVNSSSSS
B33: il10ra_site1_normal_mot_HHH_b1_04771_000000013_0001_40_56_H_._HHH_b1_02816_af2_0001_0000100001_0000001_0 (protein)
chain: SSSSDEEQRVVELSTEAFRLALRGNPEEAREVLEEAKELAEELGDERLLKMVEDLLQALESSSSS
B34: il10ra_site1_normal_mot_HHH_b2_06230_000000269_0001_23_39_H_._HHH_b1_07932_af2_0001_0000100001_0000002_0 (protein)
chain: SSSSDEEEIEKLLEELREALERGDEELFTRILDRVMRLIIELGDRELAEELQHLFRLVSRLSSSS
B35: il10ra_site1_sap_19_mot_HHH_b1_06415_af2_000000162_0001_43_56_H_._HHH_b1_05104_af2_0001_0000500031_0000001_0_0001_af2pred_0001 (protein)
chain: SSSSSRIEELLKRLLRAIERAIELGDEETARLAIRLAEKLAKEHNNEEILEELERLKEEISSSSS
B36: il10ra_site1_normal_mot_HHH_b2_04680_000000215_0001_1_16_H_._HHH_b1_07510_0001_0000500033_0000001_0 (protein)
chain: SSSSSSEELREAYRLIREAFEIEDPEEARKVVEEALELAEEANNEVFAFSIRHLLRDLRSSSSSS
B37: il10ra_site1_normal_mot_HHH_b2_05323_000000159_0001_1_18_H_._HHH_b2_06969_0001_0000200011_0000002_0 (protein)
chain: SSSDENQRALELSLEAFRLALRGNPEEAEELLREALELAEEGGNEQLFRTIEELLRALERGSSSS

Target: il10ra, Q13651
Experiment: yeast display titration

Apparent Kd, inactive:
B1 no binding seen
B2 no binding seen
B3 no binding seen
B4 no binding seen
B5 no binding seen
B6 no binding seen
B7 no binding seen
B8 no binding seen
B9 no binding seen
B10 no binding seen
B11 no binding seen
B12 no binding seen
B13 no binding seen
B14 no binding seen
B15 no binding seen
B16 no binding seen
B17 no binding seen
B18 no binding seen
B19 no binding seen
B20 no binding seen
B21 no binding seen
B22 no binding seen
B23 > 859 nM
B24 no binding seen
B25 no binding seen
B26 no binding seen
B27 no binding seen
B28 no binding seen
B29 no binding seen
B30 no binding seen
B31 no binding seen
B32 no binding seen
B33 no binding seen
B34 no binding seen
B35 no binding seen
B36 no binding seen
B37 no binding seen

Three records drawn at random from those above, as already listed:
Apparent Kd, inactive:
B14 no binding seen
B6 no binding seen
B35 no binding seen
